Our source for the binding values is PMC4220643.

Assay in all cases: SPR; Biacore3000, CM5 chip coated with DNase E7; extrinsic proteins as Im7 fusion proteins overexpressed in E. coli; who was immobilised is not told in the main text; details in the supplementary material; both purified
Background: SPR reads the build-up and loss of mass on a sensor chip optically.

Assay [1] concerns the target T1, Im7 fusion protein of CyanoP (Thermosynechococcus elongatus) (UniProt Q8DH84).
T1 sequence: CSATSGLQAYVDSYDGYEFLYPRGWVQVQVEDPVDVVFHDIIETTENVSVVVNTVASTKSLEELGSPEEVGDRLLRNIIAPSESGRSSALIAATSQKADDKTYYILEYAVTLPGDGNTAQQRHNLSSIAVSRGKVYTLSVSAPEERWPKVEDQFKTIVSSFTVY

The target of assay [2] is T2, Im7 fusion protein of Psb27 (Thermosynechococcus elongatus), Q8DG60.
T2 chain: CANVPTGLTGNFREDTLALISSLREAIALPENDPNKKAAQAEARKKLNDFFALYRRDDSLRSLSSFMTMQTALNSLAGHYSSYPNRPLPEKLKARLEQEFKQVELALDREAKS
Particulars: remark: other sources report otherwise.

In assay [3] the target is T3, Im7 fusion protein of CyanoQ (Thermosynechococcus elongatus) (UniProt Q8DHA2).
T3 sequence: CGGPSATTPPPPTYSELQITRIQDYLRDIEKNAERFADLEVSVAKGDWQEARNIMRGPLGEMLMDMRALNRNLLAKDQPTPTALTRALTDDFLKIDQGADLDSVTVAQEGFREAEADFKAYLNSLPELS

No constants are given. Whether binding was seen depends on the method and setting. Where a sequence is shown, tags or fusion partners need not be part of it.

B1: PsbV (protein, UniProt P0A386 27-163)
chain: AELTPEVLTVPLNSEGKTITLTEKQYLEGKRLFQYACASCHVGGITKTNPSLDLRTETLALATPPRDNIEGLVDYMKNPTTYDGEQEIAEVHPSLRSADIFPKMRNLTEKDLVAIAGHILVEPKILGDKWGGGKVYY
Take B1: the binding result in assay [1] is given as “no binding (tested: up to 100 μM)”.

B2: CyanoP, Q8DH84 20-183 (protein)
chain: CSATSGLQAYVDSYDGYEFLYPRGWVQVQVEDPVDVVFHDIIETTENVSVVVNTVASTKSLEELGSPEEVGDRLLRNIIAPSESGRSSALIAATSQKADDKTYYILEYAVTLPGDGNTAQQRHNLSSIAVSRGKVYTLSVSAPEERWPKVEDQFKTIVSSFTVY
For the molecule B2, in assay [2], the binding entry is given as “no binding (tested: up to 100 μM)”.

B3: CyanoP (protein, UniProt Q8DH84 20-183)
chain: CSATSGLQAYVDSYDGYEFLYPRGWVQVQVEDPVDVVFHDIIETTENVSVVVNTVASTKSLEELGSPEEVGDRLLRNIIAPSESGRSSALIAATSQKADDKTYYILEYAVTLPGDGNTAQQRHNLSSIAVSRGKVYTLSVSAPEERWPKVEDQFKTIVSSFTVY
Turning to B3, the binding result in assay [3] is “no binding (tested: up to 100 μM)”.
